Values joined by “and” are separate entries in the source; they are usually repeats but may differ in a detail not shown here. Identical values can stand only once. Among all 580,000 compounds or so, about 6,100 (1.1%) were called active. Inconclusive means that the source gave no clear call. Such entries were picked first, then a sample of the others. Calls come from the whole dose curve; as a rule, active = well fitted inhibition curve with a large enough effect; inconclusive = small, poorly fitted or top-dose-only effect, or another doubt; inactive = no such curve, though single readings can be large or run the other way. Potencies of inconclusive entries are doubtful fits and often do not repeat.
The compounds below were run against Polyunsaturated fatty acid lipoxygenase ALOX12 (Homo sapiens) (UniProt P18054) (assay: Primary qHTS assay for inhibitors of human arachidonate 12S-lipoxygenase (ALOX12): Round 2). Details: purified 12hLO, xylenol orange hydroperoxide absorbance; series mostly up to 108 µM.
Method in brief: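 Purified human 12hLO (150 nM final) in 25 mM Hepes, 0.01% Triton X-100, pH 7.0 was preincubated 15 min at room temperature with compound. Then 40 uM arachidonic acid was added, 30 min. Hydroperoxide was read by Fe-XO absorbance ratio 573/405 nm.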
Potency is the fitted concentration of half-maximal effect.

Protein sequences, listed by entry. Tags and fused reporters are not part of them.
UniProt P18054, whole entry, looked up: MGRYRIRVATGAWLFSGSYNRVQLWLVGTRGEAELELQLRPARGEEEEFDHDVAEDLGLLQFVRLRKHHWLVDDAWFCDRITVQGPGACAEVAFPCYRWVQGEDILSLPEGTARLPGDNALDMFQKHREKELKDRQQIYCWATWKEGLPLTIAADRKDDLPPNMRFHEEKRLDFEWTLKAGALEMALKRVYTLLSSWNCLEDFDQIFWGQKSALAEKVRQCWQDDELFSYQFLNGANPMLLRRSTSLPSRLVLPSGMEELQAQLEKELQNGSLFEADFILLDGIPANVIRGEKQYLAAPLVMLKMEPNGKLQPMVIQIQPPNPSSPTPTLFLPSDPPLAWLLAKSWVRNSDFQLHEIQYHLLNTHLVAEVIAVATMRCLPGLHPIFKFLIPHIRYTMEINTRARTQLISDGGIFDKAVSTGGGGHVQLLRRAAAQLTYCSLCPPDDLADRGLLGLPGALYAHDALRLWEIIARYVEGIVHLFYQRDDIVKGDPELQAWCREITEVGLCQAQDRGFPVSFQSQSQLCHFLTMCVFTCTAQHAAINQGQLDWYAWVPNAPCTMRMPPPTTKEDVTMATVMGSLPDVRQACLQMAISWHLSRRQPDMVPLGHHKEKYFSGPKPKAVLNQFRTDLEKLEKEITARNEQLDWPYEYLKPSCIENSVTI

Which Potency does the source give for CN(C)CC#CCC(O)(c1ccccc1)C1CCCC1 (stereo not drawn) here?
Its Potency is inconclusive: 63.1 µM [inhibitor, partial curve, poor fit].

Which Potency does the source give for O=c1c(-c2cccs2)ccc2n1C[C@H]1C[C@@H]2CN(Cc2cc3ccccc3o2)C1 here?
Its Potency is inconclusive: 22.4 µM [inhibitor, full curve].

With CN1C(=O)C2(CCN(Cc3cccnc3)C2)c2ccccc21 (stereo not drawn) as the compound, how does the Potency read?
Its Potency is “inactive”.

With ClCCN(CCCl)c1ccc(C2=NCCc3ccccc32)cc1 as the compound, how does the Potency read?
Its Potency is inconclusive: 56.2 µM [inhibitor, partial curve, poor fit].

For C=CCn1c(O)c(/C(C)=N/NC(=S)Nc2ccccc2)c(=O)[nH]c1=O, which Potency is on record?
Its Potency is inconclusive: 35.5 µM [inhibitor, partial curve, poor fit].

Which Potency does the source give for COc1ccccc1CN1CCN(Cc2ccc(Cl)cc2)CC1 here?
Its Potency is inconclusive: 7.94 µM [inhibitor, full curve, poor fit].

Which Potency does the source give for O=C1CO[C@H]2CN(Cc3ccccc3)C[C@H]2N1Cc1cccnc1 here?
The Potency was “inactive”.

O=C(c1ccc(Cl)cc1)C1CCCN(Cc2ccc3c(c2)OCCO3)C1 (stereo not drawn) was tested. Which Potency did it give?
Its Potency is “inactive”.

For CCc1nc(SC)ncc1C(=O)Nc1ccc(Cl)cc1C(=O)c1ccccc1, which Potency is on record?
The Potency was inconclusive: 79.4 µM [inhibitor, partial curve, poor fit].

For Cc1nn(C)c(C)c1P(=S)(c1c(C)nn(C)c1C)N(C)C, which Potency is on record?
Its Potency is inconclusive: 15.8 µM [inhibitor, full curve, poor fit].

With N#CCCn1cc(C(=O)Nc2ccc(F)cc2)c(-c2ccc([N+](=O)[O-])cc2)n1 as the compound, how does the Potency read?
The Potency was “inactive”.

How did the Potency turn out when CN(N=O)c1cc(O)ccc1O was run?
The Potency was inconclusive: 5.01 µM [inhibitor, full curve, poor fit].

How did the Potency turn out when CC1(C)C2([N+](=O)[O-])CNCC1([N+](=O)[O-])CNC2 was run?
Its Potency is inconclusive: 141 µM [inhibitor, single point].

With Cc1ccc(C(=O)C(C)(C)NO)cc1 as the compound, how does the Potency read?
Its Potency is inconclusive: 5.01 µM [inhibitor, full curve, poor fit].

Which Potency does the source give for Cn1ncnc2c(=O)n(C)c(=O)nc1-2 here?
Its Potency is inconclusive: 44.7 µM [inhibitor, partial curve, poor fit].

COc1ccc(-n2nnnc2C(c2ccccc2)N2CCC(n3c(=O)[nH]c4ccccc43)CC2)cc1 (stereo not drawn) was tested. Which Potency did it give?
Its Potency is inconclusive: 44.7 µM [inhibitor, partial curve].

Cn1cc(C(=O)Nc2ccncc2)c2ccccc21 was tested. Which Potency did it give?
The Potency was “inactive”.

How did the Potency turn out when O=[N+]([O-])/C=C/c1c[nH]c2ccccc12 was run?
The Potency was inconclusive: 39.8 µM [inhibitor, partial curve, poor fit].

For CC(Cc1ccccc1)[n+]1cc(/N=C(\[O-])N(C)C)on1 (stereo not drawn), which Potency is on record?
Its Potency is inconclusive: 15.8 µM [inhibitor, partial curve, poor fit].

With N[C@H](CCCCCP(=O)(O)O)C(=O)O as the compound, how does the Potency read?
Its Potency is inconclusive: 7.94 µM [inhibitor, full curve, poor fit] and inconclusive: 28.2 µM [inhibitor, partial curve, poor fit].

For Cc1ccc2c(c1)CC1(CN2C)C(=O)NC(=O)N(CCC2=CCCCC2)C1=O (stereo not drawn), which Potency is on record?
The Potency was inconclusive: 112 µM [inhibitor, single point].

For O=c1ccc(-c2ccccc2)c2n1C[C@H]1C[C@@H]2CN(S(=O)(=O)c2cccs2)C1, which Potency is on record?
Its Potency is “inactive”.

Which Potency does the source give for CCN1CCN(Cc2cc(OC)c3c(c2)OCO3)CC1 here?
Its Potency is inconclusive: 39.8 µM [inhibitor, partial curve, poor fit].

How did the Potency turn out when O=C1NC(=O)N(CCc2ccc(F)cc2)C(=O)/C1=C/c1ccco1 was run?
The Potency was inconclusive: 3.16 µM [inhibitor, full curve, poor fit].

Which Potency does the source give for N[C@@H](CCCCP(=O)(O)O)C(=O)O here?
Its Potency is inconclusive: 0.316 µM [inhibitor, full curve, poor fit].

Cc1ccc(C(=O)NC[C@H]2C[C@@H]3CCN2C[C@@H]3c2cc(-c3ccccc3Br)nc(C)n2)cc1 was tested. Which Potency did it give?
Its Potency is “inactive”.

With CC(C)(C)n1cc(C(=O)c2ccccc2)cc1-c1ccccc1 as the compound, how does the Potency read?
The Potency was inconclusive: 35.5 µM [inhibitor, partial curve].

With COc1cc2c(cc1OCC1CC1)NC(=O)C21CCN(c2nc(C)cc(C)n2)CC1 as the compound, how does the Potency read?
The Potency was inconclusive: 35.5 µM [inhibitor, partial curve, poor fit].

For NC(Cc1cc(O)c(O)cc1O)C(=O)O (stereo not drawn), which Potency is on record?
Its Potency is inconclusive: 35.5 µM [inhibitor, partial curve, poor fit].

For CC1(C)OC(c2ccccc2)=C/C(=C/C=C2C(=O)NC(=S)NC2=O)O1, which Potency is on record?
The Potency was “inactive”.

For CCOC(=O)[C@]12Cc3c(cc(OC)c(OC)c3OC)[C@H]1N(Cc1ccccc1)C(=O)c1ccccc12, which Potency is on record?
Its Potency is “inactive”.

CCOC(=O)[C@]1(C#N)[C@@H]2C=CC(C(N)=O)=CN2[C@@H](C(N)=O)[C@@H]1c1ccc(F)cc1 was tested. Which Potency did it give?
The Potency was inconclusive: 31.6 µM [inhibitor, partial curve, poor fit].

OC(CNC1CCCCC1)c1ccccc1 (stereo not drawn) was tested. Which Potency did it give?
The Potency was “inactive”.

Which Potency does the source give for O=c1[nH]c(=S)n(CCC2=CCCCC2)c(O)c1/C=N/Nc1ccccc1 here?
Its Potency is active: 35.5 µM.

For O=c1c2ccccc2nc(-c2ccccc2Cl)n1-c1cccc(O)c1, which Potency is on record?
The Potency was inconclusive: 50.1 µM [inhibitor, single point].

For CCOP(=O)(Oc1ccccc1)c1c([N+](=O)[O-])cc(C(F)(F)F)cc1[N+](=O)[O-] (stereo not drawn), which Potency is on record?
Its Potency is inconclusive: 39.8 µM [inhibitor, single point].

How did the Potency turn out when O=c1[nH]c(=S)n(-c2ccc(F)cc2)c(O)c1/C=N/N1CCOCC1 was run?
Its Potency is inconclusive: 39.8 µM [inhibitor, partial curve, poor fit].

C=CCn1c(O)c(/C=N/N2CCCCC2)c(=O)[nH]c1=O was tested. Which Potency did it give?
Its Potency is inconclusive: 100 µM [inhibitor, partial curve, poor fit].

Which Potency does the source give for COP(=S)(OC)SCN1C(=O)c2ccccc2C1=O here?
Its Potency is inconclusive: 39.8 µM [inhibitor, partial curve, poor fit].

Which Potency does the source give for c1ccc(CCNCC2CCCO2)cc1 (stereo not drawn) here?
The Potency was “inactive”.

Cc1cc(/C=C2\C(=O)NC(=O)N(c3ccc(F)cc3)C2=O)c(C)n1-c1ccc(C(=O)O)cc1 was tested. Which Potency did it give?
The Potency was inconclusive: 17.8 µM [inhibitor, partial curve, poor fit].

O=C1CSC(c2c(F)cccc2Cl)c2cn[nH]c2N1 (stereo not drawn) was tested. Which Potency did it give?
The Potency was “inactive”.

Which Potency does the source give for COc1ccc(C(C)=O)cc1CC(C(=O)c1ccc(C)cc1)N(C)C (stereo not drawn) here?
The Potency was “inactive”.

Which Potency does the source give for CCOCCc1c(O)[nH]c(=S)[nH]c1=O here?
Its Potency is active: 14.1 µM.

Which Potency does the source give for COc1ccc(N2C(=O)/C(=C/c3ccc(C)o3)C(=O)NC2=S)cc1 here?
The Potency was active: 12.6 µM.

Which Potency does the source give for O=C(NC1CCSC1=O)c1ccco1 (stereo not drawn) here?
The Potency was “inactive”.

How did the Potency turn out when O=[N+]([O-])c1c2ccccc2cc2ccccc12 was run?
The Potency was inconclusive: 18.3 µM [inhibitor, partial curve, poor fit].

For CCCN(CCC)C1CCc2ccc(O)cc2C1 (stereo not drawn), which Potency is on record?
Its Potency is “inactive”.

Which Potency does the source give for CC(N)Cc1ccc(N(C)C)cc1 (stereo not drawn) here?
Its Potency is inconclusive: 0.501 µM [inhibitor, full curve, poor fit].

With O=C(Cc1ccccc1)N1CCN(Cc2cccc(Br)c2)CC1 as the compound, how does the Potency read?
The Potency was “inactive”.

With CCN(CC)c1ccc(CNCCc2ccccc2F)cc1 as the compound, how does the Potency read?
The Potency was inconclusive: 56.2 µM [inhibitor, partial curve, poor fit].

How did the Potency turn out when Cc1cc(/C=C2\C(=O)NC(=O)N(Cc3ccco3)C2=O)c(C)n1-c1ccc(O)cc1 was run?
The Potency was active: 35.5 µM.

With CC(C)C1(C)N=C(c2nc3ccccc3cc2C(=O)O)NC1=O (stereo not drawn) as the compound, how does the Potency read?
The Potency was inconclusive: 28.2 µM [inhibitor, partial curve, poor fit].

How did the Potency turn out when COc1cccc(N2C(=O)NC(=O)/C(=C/c3ccc4c5c(cccc35)CC4)C2=O)c1 was run?
Its Potency is active: 39.8 µM.

For O=C(CCn1c(=O)oc2ccccc21)N1CCC2(CC1)OCCO2, which Potency is on record?
The Potency was “inactive”.

S=C(NCCc1ccccc1)N1Cc2ccc(Br)cc2-n2nncc2C1 was tested. Which Potency did it give?
Its Potency is inconclusive: 10 µM [inhibitor, full curve, poor fit].

Which Potency does the source give for COc1cc(CN2CCN(C(=O)COc3ccccc3)CC2)cc(OC)c1O here?
Its Potency is inconclusive: 1.41 µM [inhibitor, full curve, poor fit].

With COc1cc(/C=C/c2nc3ccccc3c(=O)n2-c2ccccc2O)ccc1O as the compound, how does the Potency read?
Its Potency is inconclusive: 50.1 µM [inhibitor, partial curve, poor fit].

Which Potency does the source give for Oc1ccc(CC2CC3CCN2CC3)cc1O (stereo not drawn) here?
Its Potency is inconclusive: 31.6 µM [inhibitor, partial curve, poor fit].

For Cc1ccc(-c2nc(N3CCOCC3)s[n+]2-c2ccccc2)cc1, which Potency is on record?
The Potency was active: 20 µM.

With COc1ccc(C(=O)C2CCCN(CCc3ccccc3)C2)cc1OC (stereo not drawn) as the compound, how does the Potency read?
Its Potency is inconclusive: 39.8 µM [inhibitor, partial curve, poor fit].

With Cc1cc(C(=O)OCC(=O)Nc2ccccc2F)c(C)n1C1CC1 as the compound, how does the Potency read?
The Potency was inconclusive: 2.51 µM [inhibitor, full curve, poor fit].

With C/C(=N\N(C)c1ccccc1)c1c(O)[nH]c(=O)[nH]c1=O as the compound, how does the Potency read?
Its Potency is inconclusive: 56.2 µM [inhibitor, partial curve, poor fit].

C[C@]12CC[C@@H](O)CC1=CCC1C2CC[C@]2(C)C(=O)[C@H](F)CC12 (stereo partly drawn) was tested. Which Potency did it give?
The Potency was inconclusive: 39.8 µM [inhibitor, single point].

How did the Potency turn out when CCCn1ncc(CN2CCCC(C(=O)c3cccc(OC)c3)C2)c1C (stereo not drawn) was run?
The Potency was inconclusive: 200 µM [inhibitor, partial curve, poor fit].

With COc1ccc(N2C(=O)CC(N3CC=C(c4ccccc4)CC3)C2=O)cc1 (stereo not drawn) as the compound, how does the Potency read?
The Potency was inconclusive: 7.94 µM [inhibitor, partial curve, poor fit].

Which Potency does the source give for COCCCn1c(N)c(C(=O)NCc2ccco2)c2nc3ccccc3nc21 here?
Its Potency is inconclusive: 7.94 µM [inhibitor, full curve, poor fit].

For c1ccc(CNCCc2c[nH]c3ccccc23)cc1, which Potency is on record?
Its Potency is inconclusive: 10 µM [inhibitor, full curve, poor fit].

Source: PubChem BioAssay AID1671190 (National Center for Advancing Translational Sciences (NCATS), 2021)
